Results are given in words; binding and its absence hold for the method and conditions named. For some of these results: In cells and extracts the contact can be indirect. Some results given as binding are weak or reduced against the parent protein; the word gives no strength. For some of these results: Sequences can lack the tags named with a protein.
T1: Lsg1-TAP (tandem affinity purification-tagged GTPase Lsg1) (S. cerevisiae) (UniProt P53145)
T1 sequence: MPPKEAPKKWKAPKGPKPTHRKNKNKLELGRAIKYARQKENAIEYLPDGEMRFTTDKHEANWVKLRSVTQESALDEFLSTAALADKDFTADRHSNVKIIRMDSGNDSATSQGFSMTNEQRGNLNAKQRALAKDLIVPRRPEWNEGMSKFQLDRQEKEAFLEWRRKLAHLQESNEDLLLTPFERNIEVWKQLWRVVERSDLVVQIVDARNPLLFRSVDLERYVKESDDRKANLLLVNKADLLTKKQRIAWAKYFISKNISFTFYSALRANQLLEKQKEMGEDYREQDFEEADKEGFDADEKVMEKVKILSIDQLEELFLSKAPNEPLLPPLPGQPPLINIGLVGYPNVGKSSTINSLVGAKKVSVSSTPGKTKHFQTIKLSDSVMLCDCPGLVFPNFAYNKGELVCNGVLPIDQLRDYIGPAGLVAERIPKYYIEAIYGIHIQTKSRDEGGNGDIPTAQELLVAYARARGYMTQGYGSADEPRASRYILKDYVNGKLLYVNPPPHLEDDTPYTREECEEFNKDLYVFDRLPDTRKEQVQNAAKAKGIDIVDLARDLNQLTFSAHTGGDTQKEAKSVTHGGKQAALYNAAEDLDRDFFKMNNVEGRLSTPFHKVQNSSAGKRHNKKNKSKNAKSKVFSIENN

Amino acid sequences for entries named in this document (tags omitted).
UniProt Q12522: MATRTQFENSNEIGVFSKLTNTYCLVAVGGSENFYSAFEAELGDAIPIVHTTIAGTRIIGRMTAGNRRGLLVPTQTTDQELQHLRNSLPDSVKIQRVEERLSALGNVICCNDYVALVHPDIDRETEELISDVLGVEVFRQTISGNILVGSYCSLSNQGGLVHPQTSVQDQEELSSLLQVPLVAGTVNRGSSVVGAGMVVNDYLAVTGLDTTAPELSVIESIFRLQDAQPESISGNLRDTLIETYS

T2: Arx1 (S. cerevisiae (endogenous in the Lsg1-TAP strain)) (UniProt Q03862)
T2 sequence: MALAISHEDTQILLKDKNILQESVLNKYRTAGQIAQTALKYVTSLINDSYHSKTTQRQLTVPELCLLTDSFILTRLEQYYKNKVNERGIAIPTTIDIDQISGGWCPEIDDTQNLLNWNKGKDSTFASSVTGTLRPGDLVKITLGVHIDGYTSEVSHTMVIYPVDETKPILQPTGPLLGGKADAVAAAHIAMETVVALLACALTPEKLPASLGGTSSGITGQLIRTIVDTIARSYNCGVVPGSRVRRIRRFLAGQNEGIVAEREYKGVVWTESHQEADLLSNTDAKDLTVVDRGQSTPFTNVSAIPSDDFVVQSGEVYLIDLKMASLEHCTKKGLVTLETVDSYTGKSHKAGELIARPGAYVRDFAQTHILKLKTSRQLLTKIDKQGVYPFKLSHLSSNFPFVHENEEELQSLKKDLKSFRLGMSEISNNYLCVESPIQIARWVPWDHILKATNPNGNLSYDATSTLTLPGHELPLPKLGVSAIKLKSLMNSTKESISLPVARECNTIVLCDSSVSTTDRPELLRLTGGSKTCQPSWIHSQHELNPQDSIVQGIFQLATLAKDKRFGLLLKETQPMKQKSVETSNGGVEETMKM

T3: Rei1 (S. cerevisiae (endogenous in the Lsg1-TAP strain)) (UniProt P38344)
T3 sequence: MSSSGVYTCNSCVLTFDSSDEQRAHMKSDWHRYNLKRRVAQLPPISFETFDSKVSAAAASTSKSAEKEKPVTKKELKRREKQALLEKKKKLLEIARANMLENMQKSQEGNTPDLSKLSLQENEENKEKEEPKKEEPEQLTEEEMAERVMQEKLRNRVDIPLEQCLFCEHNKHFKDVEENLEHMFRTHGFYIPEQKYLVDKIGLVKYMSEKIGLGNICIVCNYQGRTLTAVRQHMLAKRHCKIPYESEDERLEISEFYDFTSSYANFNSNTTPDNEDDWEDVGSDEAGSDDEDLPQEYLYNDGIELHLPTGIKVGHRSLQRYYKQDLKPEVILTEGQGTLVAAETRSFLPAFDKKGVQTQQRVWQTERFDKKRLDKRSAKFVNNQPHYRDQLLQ

T4: Arx1 (S. cerevisiae (endogenous in the Lsg1-TAP strain)), Q03862
T4 chain: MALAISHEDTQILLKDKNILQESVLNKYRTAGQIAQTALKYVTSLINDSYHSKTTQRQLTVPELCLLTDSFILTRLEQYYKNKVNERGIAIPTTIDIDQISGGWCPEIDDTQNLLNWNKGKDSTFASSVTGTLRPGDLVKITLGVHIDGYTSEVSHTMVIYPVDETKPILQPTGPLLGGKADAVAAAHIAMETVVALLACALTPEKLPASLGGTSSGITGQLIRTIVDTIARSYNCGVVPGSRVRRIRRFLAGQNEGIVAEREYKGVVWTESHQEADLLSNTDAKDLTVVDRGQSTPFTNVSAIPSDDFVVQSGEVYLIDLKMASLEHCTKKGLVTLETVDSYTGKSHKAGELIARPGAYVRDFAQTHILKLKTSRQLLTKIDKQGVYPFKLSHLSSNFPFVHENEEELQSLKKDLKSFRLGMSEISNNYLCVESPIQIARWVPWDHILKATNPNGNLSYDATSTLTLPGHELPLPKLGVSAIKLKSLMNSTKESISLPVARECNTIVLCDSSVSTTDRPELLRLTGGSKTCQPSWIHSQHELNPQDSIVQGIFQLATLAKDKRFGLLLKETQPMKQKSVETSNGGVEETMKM


Columns and labels:
[1] = target: T1, Lsg1-TAP (tandem affinity purification-tagged GTPase Lsg1) (S. cerevisiae); assay: pull-down; Lsg1-TAP as bait from cleared S. cerevisiae lysate on rabbit IgG magnetic beads, 4°C, 90 min; washes with LB1 (20 mM HEPES pH 7.5, 10 mM KCl, 2.5 mM MgCl2, 1 mM EGTA) and LB1 with 100 mM NaCl; TEV elution; immunoblotting of purified pre-60S particles against crude extract
[2] = target: T1, Lsg1-TAP (tandem affinity purification-tagged GTPase Lsg1) (S. cerevisiae); assay: cross-linking; XL-MS: Lsg1-TAP pre-ribosomal particles (tandem affinity purified, BY4741) cross-linked with 1.5 mM DSS d0/d12 in 20 mM HEPES pH 8.3, 5 mM MgCl2; trypsin, LC-MS/MS, xQuest; two biological replicates
[3] = target: T2, Arx1 (S. cerevisiae (endogenous in the Lsg1-TAP strain)); assay: as above
[4] = target: T3, Rei1 (S. cerevisiae (endogenous in the Lsg1-TAP strain)); assay: as above
[5] = target: eIF6 (yeast Tif6) (S. cerevisiae (endogenous in the Lsg1-TAP strain)) (UniProt Q12522); assay: cryo-EM structure; native pre-60S particles purified by Lsg1-TAP from S. cerevisiae, 0.5% glutaraldehyde 10 min 4°C, 40 nM on grids; six states (I-VI) by 3D classification, 3.1-3.9 Å
[6] = target: T1, Lsg1-TAP (tandem affinity purification-tagged GTPase Lsg1) (S. cerevisiae); assay: as above
[7] = target: T4, Arx1 (S. cerevisiae (endogenous in the …)); assay: cross-linking; XL-MS: Lsg1-TAP pre-ribosomal particles (tandem affinity purified, BY4741) cross-linked with 1.5 mM DSS d0/d12 in 20 mM HEPES pH 8.3, 5 mM MgCl2; trypsin, LC-MS/MS, xQuest; two biological replicates; conditions: remark: other sources report otherwise

Row | Molecule | binding [1] | binding [5] | binding [6] | further results
1 | eIF6 (yeast Tif6) (from UniProt Q12522 1-245) | binds |  |  | 
2 | Arx1 (protein, UniProt Q03862 1-593) MALAISHEDTQILLKDKNILQESVLNKYRTAGQIAQTALKYVTSLINDSYHSKTTQRQLTVPELCLLTDSFILTRLEQYYKNKVNERGIAIPTTIDIDQISGGWCPEIDDTQNLLNWNKGKDSTFASSVTGTLRPGDLVKITLGVHIDGYTSEVSHTMVIYPVDETKPILQPTGPLLGGKADAVAAAHIAMETVVALLACALTPEKLPASLGGTSSGITGQLIRTIVDTIARSYNCGVVPGSRVRRIRRFLAGQNEGIVAEREYKGVVWTESHQEADLLSNTDAKDLTVVDRGQSTPFTNVSAIPSDDFVVQSGEVYLIDLKMASLEHCTKKGLVTLETVDSYTGKSHKAGELIARPGAYVRDFAQTHILKLKTSRQLLTKIDKQGVYPFKLSHLSSNFPFVHENEEELQSLKKDLKSFRLGMSEISNNYLCVESPIQIARWVPWDHILKATNPNGNLSYDATSTLTLPGHELPLPKLGVSAIKLKSLMNSTKESISLPVARECNTIVLCDSSVSTTDRPELLRLTGGSKTCQPSWIHSQHELNPQDSIVQGIFQLATLAKDKRFGLLLKETQPMKQKSVETSNGGVEETMKM | binds |  |  | 
3 | ribosomal protein uL16 (protein, UniProt P41805 1-221) MARRPARCYRYQKNKPYPKSRYNRAVPDSKIRIYDLGKKKATVDEFPLCVHLVSNELEQLSSEALEAARICANKYMTTVSGRDAFHLRVRVHPFHVLRINKMLSCAGADRLQQGMRGAWGKPHGLAARVDIGQIIFSVRTKDSNKDVVVEGLRRARYKFPGQQKIILSKKWGFTNLDRPEYLKKREAGEVKDDGAFVKFLSKKGSLENNIREFPEYFAAQA |  |  |  | binding [2]: binds
4 | Reh1 (protein, UniProt Q06709 1-432) MSSTFFTCNCCVIQFKTSDLQRYHMKTEWHRYNLKRRIANLPPIGAEQFAEKLQISEKEQAENQVDEFGFPVLKPVMNQSNALPQKQKKPIKSKRGRKVGTNLLKRKDRDIAKEKQNRSVSPSGSISSQLSNLTVGTENTNTDYGEDTVSEYGFTSDSNYEYATSDEELDIADKPSDKENEKITITECIYCGKDNKEVERNVKHMFSEHGLFIPERSYLIDLNGLLEFLIKMIVIDHNCLCCNFHGSGLESIRAHMASKRHCRLPYETKEERQLFAPFYDFTYDDHSISKNLQNDRAITSKLSSVYGAKNDEEDGEVDITLVSSENDINANYTTVSIDESGLELTLPTGARLGHRAGQRYYRQNLPSQPNPNESRRTITAADRRMVSGVTEKQYKKGMKKMQQLEKNAINTQIRREIKRVNFQTHYRDELLQ |  | binds | binds | binding [3]: no binding; binding [4]: no binding
5 | Rei1, P38344 1-393 (protein) MSSSGVYTCNSCVLTFDSSDEQRAHMKSDWHRYNLKRRVAQLPPISFETFDSKVSAAAASTSKSAEKEKPVTKKELKRREKQALLEKKKKLLEIARANMLENMQKSQEGNTPDLSKLSLQENEENKEKEEPKKEEPEQLTEEEMAERVMQEKLRNRVDIPLEQCLFCEHNKHFKDVEENLEHMFRTHGFYIPEQKYLVDKIGLVKYMSEKIGLGNICIVCNYQGRTLTAVRQHMLAKRHCKIPYESEDERLEISEFYDFTSSYANFNSNTTPDNEDDWEDVGSDEAGSDDEDLPQEYLYNDGIELHLPTGIKVGHRSLQRYYKQDLKPEVILTEGQGTLVAAETRSFLPAFDKKGVQTQQRVWQTERFDKKRLDKRSAKFVNNQPHYRDQLLQ |  |  |  | binding [7]: binds

Now from value to molecule, other results behind:

Row | binding [1] | binding [5] | binding [6] | Molecule | further results
6 | binds | binds | binds | Nmd3 (nuclear export adaptor) (protein, UniProt P38861 1-518) MEFTPIDPHQHQNAATLLCCNCGTPIDGSTGLVMCYDCIKLTVDITQGIPREANISFCRNCERFLQPPGQWIRAELESRELLAICLRRLKGLTKVRLVDASFIWTEPHSRRIRIKLTVQGEAMTNTIIQQTFEVEYIVIAMQCPDCARSYTTNTWRATVQIRQKVPHKRTFLFLEQLILKHNAHVDTISISEAKDGLDFFYAQKNHAVKMIDFLNAVVPIKHKKSEELISQDTHTGASTYKFSYSVEIVPICKDDLVVLPKKLAKSMGNISQFVLCSKISNTVQFMDPTTLQTADLSPSVYWRAPFNALADVTQLVEFIVLDVDSTGISRGNRVLADITVARTSDLGVNDQVYYVRSHLGGICHAGDSVMGYFIANSNYNSDLFDGLNIDYVPDVVLVKKLYQRKSKKSRHWKLKRMAKEHKDIDASLDYNSRAQKQEMERAEKDYELFLQELEEDAELRQSVNLYKNREANVPPEEHEMDEDEDEDAPQINIDELLDELDEMTLEDGVENTPVESQQ | 
7 |  | binds | binds | Rei1 (protein, UniProt P38344 1-393) MSSSGVYTCNSCVLTFDSSDEQRAHMKSDWHRYNLKRRVAQLPPISFETFDSKVSAAAASTSKSAEKEKPVTKKELKRREKQALLEKKKKLLEIARANMLENMQKSQEGNTPDLSKLSLQENEENKEKEEPKKEEPEQLTEEEMAERVMQEKLRNRVDIPLEQCLFCEHNKHFKDVEENLEHMFRTHGFYIPEQKYLVDKIGLVKYMSEKIGLGNICIVCNYQGRTLTAVRQHMLAKRHCKIPYESEDERLEISEFYDFTSSYANFNSNTTPDNEDDWEDVGSDEAGSDDEDLPQEYLYNDGIELHLPTGIKVGHRSLQRYYKQDLKPEVILTEGQGTLVAAETRSFLPAFDKKGVQTQQRVWQTERFDKKRLDKRSAKFVNNQPHYRDQLLQ | 

From publication PMC6579518
